Measured values: the supplement of paper PMC12823440, “Inhibitors supercharge kinase turnover through native proteolytic circuits” (Nature, 2025)
This is one part of the list. Hit calls seldom repeat between salt and free forms of one compound.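 Kinases were expressed as nanoluciferase fusions in K562 cells and luminescence was read every 4 h between 2 and 18 h as percent of control, DMSO set to 100% and a positive control to 0%. A time point counts as decreased when the signal drops significantly (2 sigma). The hit call is the authors' own, does not follow from the count of time points alone, and its rule is not shown.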

Sequences of proteins named here, by UniProt entry; tags and fusion partners are left off. A change or cut given only in a name is not applied to a line headed by its entry.
UniProt O96013: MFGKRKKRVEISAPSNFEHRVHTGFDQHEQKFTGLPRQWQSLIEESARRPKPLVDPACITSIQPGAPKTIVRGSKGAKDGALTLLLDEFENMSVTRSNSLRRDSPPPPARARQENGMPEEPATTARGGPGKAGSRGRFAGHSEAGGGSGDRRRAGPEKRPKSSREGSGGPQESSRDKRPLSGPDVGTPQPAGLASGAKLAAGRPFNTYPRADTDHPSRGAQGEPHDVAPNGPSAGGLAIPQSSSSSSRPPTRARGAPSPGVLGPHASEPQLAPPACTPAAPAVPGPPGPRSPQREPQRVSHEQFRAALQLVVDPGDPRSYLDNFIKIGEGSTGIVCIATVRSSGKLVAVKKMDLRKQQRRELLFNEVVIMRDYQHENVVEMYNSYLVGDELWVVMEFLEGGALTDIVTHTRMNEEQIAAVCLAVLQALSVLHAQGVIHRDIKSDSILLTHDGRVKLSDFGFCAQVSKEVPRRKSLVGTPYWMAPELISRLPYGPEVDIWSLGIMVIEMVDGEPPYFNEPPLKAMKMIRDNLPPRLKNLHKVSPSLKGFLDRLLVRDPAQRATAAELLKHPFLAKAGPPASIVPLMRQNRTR
UniProt Q96KB5: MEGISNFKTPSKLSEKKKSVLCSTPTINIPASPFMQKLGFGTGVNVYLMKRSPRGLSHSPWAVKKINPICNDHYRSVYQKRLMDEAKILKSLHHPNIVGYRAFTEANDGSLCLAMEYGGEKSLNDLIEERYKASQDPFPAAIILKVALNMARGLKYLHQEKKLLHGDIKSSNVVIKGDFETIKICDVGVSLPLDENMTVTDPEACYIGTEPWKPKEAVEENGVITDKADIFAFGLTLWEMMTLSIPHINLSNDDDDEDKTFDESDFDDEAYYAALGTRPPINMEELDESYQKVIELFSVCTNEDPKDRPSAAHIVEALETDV
UniProt P09619, whole entry: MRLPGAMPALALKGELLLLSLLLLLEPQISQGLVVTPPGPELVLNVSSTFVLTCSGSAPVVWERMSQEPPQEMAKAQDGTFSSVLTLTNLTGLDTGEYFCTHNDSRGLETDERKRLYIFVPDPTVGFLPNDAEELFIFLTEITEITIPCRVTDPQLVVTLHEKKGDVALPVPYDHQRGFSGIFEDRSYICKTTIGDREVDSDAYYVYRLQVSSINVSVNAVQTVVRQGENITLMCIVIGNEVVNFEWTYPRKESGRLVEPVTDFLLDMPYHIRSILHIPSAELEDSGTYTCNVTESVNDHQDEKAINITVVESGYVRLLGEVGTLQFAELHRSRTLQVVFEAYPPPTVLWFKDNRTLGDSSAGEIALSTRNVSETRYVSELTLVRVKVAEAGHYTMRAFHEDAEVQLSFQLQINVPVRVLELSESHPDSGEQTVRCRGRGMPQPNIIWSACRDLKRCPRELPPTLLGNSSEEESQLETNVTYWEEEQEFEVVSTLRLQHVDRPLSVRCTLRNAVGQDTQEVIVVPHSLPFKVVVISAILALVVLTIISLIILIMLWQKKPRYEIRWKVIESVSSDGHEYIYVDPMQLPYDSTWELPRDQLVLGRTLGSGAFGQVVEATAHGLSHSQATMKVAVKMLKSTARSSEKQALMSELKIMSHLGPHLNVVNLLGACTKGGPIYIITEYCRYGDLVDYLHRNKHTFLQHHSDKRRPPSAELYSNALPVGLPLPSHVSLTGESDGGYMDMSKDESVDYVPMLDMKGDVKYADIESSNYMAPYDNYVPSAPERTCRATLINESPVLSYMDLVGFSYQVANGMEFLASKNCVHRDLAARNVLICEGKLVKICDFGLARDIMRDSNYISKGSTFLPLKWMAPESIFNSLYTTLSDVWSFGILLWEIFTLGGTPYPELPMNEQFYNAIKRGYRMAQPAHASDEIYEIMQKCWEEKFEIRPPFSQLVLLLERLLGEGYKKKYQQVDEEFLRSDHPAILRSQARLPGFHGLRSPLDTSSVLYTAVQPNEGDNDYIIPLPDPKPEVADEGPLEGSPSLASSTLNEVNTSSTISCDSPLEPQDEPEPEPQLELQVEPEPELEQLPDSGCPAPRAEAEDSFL
UniProt Q15118, whole entry, looked up: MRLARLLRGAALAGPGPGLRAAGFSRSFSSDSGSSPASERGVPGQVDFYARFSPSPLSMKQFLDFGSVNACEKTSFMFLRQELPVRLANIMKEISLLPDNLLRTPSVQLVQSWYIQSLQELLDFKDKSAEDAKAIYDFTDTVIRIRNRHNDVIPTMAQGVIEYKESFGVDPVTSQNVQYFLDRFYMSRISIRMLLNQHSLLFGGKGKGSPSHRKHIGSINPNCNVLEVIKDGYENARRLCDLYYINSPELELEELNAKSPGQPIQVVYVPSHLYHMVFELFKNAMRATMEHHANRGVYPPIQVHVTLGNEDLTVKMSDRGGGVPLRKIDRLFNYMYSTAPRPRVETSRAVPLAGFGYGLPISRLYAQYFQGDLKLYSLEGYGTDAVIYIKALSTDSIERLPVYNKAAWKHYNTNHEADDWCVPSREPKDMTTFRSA
UniProt O15530: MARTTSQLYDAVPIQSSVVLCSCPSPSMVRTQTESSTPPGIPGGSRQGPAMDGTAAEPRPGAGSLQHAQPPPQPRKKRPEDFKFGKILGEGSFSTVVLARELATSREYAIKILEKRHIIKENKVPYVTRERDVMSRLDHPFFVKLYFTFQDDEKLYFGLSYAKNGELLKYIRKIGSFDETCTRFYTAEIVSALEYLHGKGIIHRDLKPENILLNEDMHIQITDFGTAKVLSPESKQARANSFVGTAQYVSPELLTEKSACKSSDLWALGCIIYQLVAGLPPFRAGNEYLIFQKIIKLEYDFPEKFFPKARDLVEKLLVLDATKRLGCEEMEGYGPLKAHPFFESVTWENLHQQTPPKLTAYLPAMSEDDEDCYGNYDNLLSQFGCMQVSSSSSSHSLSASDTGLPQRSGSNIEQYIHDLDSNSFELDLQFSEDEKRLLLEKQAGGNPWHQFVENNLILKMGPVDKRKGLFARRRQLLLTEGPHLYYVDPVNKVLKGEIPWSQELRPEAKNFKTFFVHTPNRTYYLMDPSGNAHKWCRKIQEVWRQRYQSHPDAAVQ
UniProt Q9UBF8: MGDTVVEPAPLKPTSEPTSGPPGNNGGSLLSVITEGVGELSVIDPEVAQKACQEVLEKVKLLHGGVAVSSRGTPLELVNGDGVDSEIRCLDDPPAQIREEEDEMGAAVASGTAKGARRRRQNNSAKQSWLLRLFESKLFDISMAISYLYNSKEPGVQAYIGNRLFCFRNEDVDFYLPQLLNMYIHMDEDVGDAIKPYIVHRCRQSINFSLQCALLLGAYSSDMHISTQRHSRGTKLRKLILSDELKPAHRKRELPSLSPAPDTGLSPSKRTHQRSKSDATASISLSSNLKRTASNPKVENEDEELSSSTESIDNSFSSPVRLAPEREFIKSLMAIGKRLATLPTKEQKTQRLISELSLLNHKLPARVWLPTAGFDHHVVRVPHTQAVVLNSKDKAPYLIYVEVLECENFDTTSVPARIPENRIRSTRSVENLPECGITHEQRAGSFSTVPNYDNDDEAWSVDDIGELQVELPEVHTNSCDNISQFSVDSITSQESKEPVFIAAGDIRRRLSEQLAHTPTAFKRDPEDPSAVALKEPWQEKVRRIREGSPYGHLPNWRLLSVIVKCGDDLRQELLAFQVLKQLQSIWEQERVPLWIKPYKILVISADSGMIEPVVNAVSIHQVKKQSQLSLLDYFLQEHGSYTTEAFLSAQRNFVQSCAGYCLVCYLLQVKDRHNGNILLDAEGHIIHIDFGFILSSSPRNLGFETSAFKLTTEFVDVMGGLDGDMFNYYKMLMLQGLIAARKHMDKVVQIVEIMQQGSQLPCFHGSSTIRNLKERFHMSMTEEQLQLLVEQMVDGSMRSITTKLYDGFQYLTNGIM
UniProt P53350, whole entry: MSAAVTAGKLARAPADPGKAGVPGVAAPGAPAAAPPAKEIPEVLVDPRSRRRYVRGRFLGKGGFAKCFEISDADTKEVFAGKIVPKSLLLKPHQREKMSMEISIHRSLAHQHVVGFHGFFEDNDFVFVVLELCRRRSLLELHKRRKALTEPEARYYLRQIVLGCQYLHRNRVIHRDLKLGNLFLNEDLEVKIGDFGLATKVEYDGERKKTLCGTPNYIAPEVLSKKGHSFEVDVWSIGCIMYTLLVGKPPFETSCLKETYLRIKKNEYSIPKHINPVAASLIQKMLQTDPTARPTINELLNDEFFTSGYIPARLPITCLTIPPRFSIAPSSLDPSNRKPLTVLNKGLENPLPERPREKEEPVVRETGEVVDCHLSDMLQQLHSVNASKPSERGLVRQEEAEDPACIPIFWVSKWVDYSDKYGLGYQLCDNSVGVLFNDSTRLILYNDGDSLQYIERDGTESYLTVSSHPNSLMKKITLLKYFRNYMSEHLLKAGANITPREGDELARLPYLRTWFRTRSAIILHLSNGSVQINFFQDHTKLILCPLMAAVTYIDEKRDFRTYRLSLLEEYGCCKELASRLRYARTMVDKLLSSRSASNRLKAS
UniProt Q13131: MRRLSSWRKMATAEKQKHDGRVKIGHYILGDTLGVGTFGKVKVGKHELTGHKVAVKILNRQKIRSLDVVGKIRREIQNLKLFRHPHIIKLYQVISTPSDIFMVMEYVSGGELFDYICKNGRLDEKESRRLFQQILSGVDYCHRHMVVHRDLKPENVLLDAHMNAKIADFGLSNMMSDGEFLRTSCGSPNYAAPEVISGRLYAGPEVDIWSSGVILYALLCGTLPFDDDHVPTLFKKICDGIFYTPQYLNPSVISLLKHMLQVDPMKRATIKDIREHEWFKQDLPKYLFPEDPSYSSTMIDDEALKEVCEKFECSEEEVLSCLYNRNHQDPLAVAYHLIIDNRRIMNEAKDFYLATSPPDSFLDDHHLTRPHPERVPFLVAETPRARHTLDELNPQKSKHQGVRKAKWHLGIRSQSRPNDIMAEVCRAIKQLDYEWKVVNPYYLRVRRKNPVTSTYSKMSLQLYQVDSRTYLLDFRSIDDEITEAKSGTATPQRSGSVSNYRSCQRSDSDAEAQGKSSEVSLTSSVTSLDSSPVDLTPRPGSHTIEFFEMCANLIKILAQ
UniProt Q16288, whole entry, looked up: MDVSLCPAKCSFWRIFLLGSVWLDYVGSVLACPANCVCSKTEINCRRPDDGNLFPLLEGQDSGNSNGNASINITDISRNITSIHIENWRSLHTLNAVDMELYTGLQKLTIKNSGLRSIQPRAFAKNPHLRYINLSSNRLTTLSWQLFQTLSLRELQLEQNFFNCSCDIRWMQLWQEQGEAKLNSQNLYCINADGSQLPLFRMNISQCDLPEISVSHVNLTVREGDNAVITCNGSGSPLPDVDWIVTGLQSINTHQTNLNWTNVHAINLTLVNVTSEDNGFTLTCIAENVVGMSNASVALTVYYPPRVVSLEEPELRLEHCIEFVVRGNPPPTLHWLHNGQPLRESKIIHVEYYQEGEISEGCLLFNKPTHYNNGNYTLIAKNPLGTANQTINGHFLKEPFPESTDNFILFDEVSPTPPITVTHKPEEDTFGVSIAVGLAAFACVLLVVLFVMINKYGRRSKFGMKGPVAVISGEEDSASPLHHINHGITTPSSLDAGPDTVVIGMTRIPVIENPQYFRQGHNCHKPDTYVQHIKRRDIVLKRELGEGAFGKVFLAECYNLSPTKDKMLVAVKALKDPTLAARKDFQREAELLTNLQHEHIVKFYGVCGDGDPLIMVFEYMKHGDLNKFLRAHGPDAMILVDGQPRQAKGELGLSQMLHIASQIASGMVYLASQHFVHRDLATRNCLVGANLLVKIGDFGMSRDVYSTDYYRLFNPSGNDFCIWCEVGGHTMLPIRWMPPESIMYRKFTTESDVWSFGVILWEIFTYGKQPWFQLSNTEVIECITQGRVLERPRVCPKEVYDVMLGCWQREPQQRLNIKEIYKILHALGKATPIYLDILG

Tests used:
Assay in all cases: number of time points (of 5) at which kinase-Nluc abundance scored as decreased, DMSO-normalised (count); higher = more persistent destabilization
Settings in all cases: K562; 2-18 h
PAK4 = PAK4 (UniProt O96013)
PBK = PBK (UniProt Q96KB5)
PDGFRB = PDGFRB (UniProt P09619)
PDK1 = PDK1 (UniProt Q15118)
PDPK1 = PDPK1 (UniProt O15530)
PIK4CA = PIK4CA (UniProt P42356)
PIK4CB = PIK4CB (UniProt Q9UBF8)
PLK1 = PLK1 (UniProt P53350)
PRKAA1 = PRKAA1 (UniProt Q13131)
NTRK3 = NTRK3 (UniProt Q16288)

Measured: number of time points

COc1cc(Nc2ncc(F)c(Nc3ccc4c(n3)NC(=O)C(C)(C)O4)n2)cc(OC)c1OC [R406 (free base)] (10 µM)
not listed: NTRK3
0: all other assays above

Nc1ncnc2c1c(-c1ccc(Oc3ccccc3)cc1)nn2C1CCCC1 (2.5 µM)
0: all assays above

CCCCCCCCCCCCC/C=C/[C@@H](O)[C@@H](N)CO [D-erythro-Sphingosine] (2.5 µM)
0: all assays above

COc1cc2ncc(-c3ccccc3)nc2cc1OC [Tyrphostin AG1296] (10 µM)
1: PDPK1
0: all other assays above

COc1cc2c(N3CCN(C(=O)Nc4ccc(OC(C)C)cc4)CC3)ncnc2cc1OCCCN1CCCCC1 [Tandutinib] (10 µM)
not listed: PDGFRB | NTRK3
0: all other assays above

FC(F)(c1ccc2ncccc2c1)c1nnc2ccc(-c3ccncc3)nn12 (10 µM)
0: all assays above

C[C@@H]1CCN(C(=O)CC#N)C[C@@H]1N(C)c1ncnc2[nH]ccc12 [Tofacitinib (citrate)] (10 µM)
not listed: PDGFRB
0: all other assays above

O=Nc1c(-c2c(O)[nH]c3ccc(I)cc23)[nH]c2ccccc12 [5-Iodo-indirubin-3'-monoxime] (10 µM)
0: all assays above
